Publication PMC9511784
Results are given in words; binding and its absence hold for the method and conditions named. In cells and extracts the contact can be indirect. Some binding calls cover weakened binding; strength is not graded here. For some assays here: Tags and fused reporters may be left off the sequences shown.

The chains behind the UniProt entries cited, without tags or fusion partners.
UniProt P51149: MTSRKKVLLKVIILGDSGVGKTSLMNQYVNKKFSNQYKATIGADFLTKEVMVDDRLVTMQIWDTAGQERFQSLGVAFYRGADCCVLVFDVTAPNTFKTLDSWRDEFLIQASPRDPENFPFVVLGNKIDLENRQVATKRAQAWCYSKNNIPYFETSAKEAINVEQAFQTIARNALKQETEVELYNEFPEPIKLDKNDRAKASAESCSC

Experiments:
[1] = biological target: T1, GSDMB C-terminal fragment GB92-416 (produced by caspase 3/6/7 processing) (human) (UniProt Q8TAX9); experiment: co-IP; HCC1954 control (empty vector), GB and GB92-416 cells after CQ and lapatinib plus CQ treatment; which protein was precipitated is not told in the text shown
T1 sequence: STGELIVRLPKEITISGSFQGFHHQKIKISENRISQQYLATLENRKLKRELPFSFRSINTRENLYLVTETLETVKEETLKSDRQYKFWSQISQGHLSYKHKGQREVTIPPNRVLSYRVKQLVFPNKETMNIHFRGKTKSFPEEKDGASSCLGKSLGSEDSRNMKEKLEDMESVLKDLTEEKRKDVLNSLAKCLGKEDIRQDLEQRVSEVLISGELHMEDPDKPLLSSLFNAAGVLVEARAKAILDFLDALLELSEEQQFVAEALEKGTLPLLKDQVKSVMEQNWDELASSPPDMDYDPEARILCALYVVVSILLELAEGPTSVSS

[2] = biological target: T2, myc-tagged full length GSDMB (Gasdermin B) (human) (UniProt Q8TAX9); experiment: as above
T2 sequence: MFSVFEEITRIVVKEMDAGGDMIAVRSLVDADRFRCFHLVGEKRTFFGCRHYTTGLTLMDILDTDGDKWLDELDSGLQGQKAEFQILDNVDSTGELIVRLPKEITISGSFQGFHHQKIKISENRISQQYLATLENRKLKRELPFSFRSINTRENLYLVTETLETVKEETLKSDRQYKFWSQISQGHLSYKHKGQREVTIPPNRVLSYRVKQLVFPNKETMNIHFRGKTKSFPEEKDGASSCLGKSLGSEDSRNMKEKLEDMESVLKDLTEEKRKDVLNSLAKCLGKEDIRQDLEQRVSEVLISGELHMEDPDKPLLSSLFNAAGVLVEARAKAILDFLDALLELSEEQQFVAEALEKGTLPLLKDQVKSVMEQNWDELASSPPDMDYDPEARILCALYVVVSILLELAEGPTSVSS

Substance: Ras-related protein Rab-7 (Rab7a) (from UniProt P51149 1-207)
- binding [1]: no binding
- binding [2]: binds
